Results as given in PubChem BioAssay AID540256 (National Center for Advancing Translational Sciences (NCATS), 2011).
Where “and” joins values, the source holds several entries; their conditions need not be identical. Equal entries are not always repeated. The whole screen tested about 300,000 compounds, of which about 3,700 (1.2%) were called active. Inconclusive means that the source gave no clear call. Such entries were picked first, then a sample of the others. Calls follow the shape of the full dose curve; tested in HEK293 cells. Where the call is inconclusive, the potency comes from a doubtful curve fit.

Experiment: qHTS for Inhibitors of binding or entry into cells for Lassa Virus; also: nearly all actives have a fitted effect of over 50% in size
Details: Lassa virus pseudotype entry inhibition, cell reporter; series mostly up to 37.9 µM
Potency is read from the fitted curve at half-maximal effect.

With `CCOC(=O)C1CCN(S(=O)(=O)c2ccc3c(c2)NC(=O)CS3)CC1` as the molecule, how does the Potency read?
Its Potency is inconclusive: 7.08 µM [inhibitor, partial curve, poor fit].

For `COc1cc(C(=O)Nc2ccc(NC(=O)c3ccc(C(C)(C)C)cc3)cc2)cc(OC)c1OC`, which Potency is on record?
Its Potency is inconclusive: 35.5 µM [inhibitor, partial curve, poor fit].

For `CSc1ccc(Cl)c(C(=O)Nc2ccc(C)cn2)c1`, which Potency is on record?
Its Potency is inconclusive: 5.01 µM [inhibitor, partial curve].

For `Cc1cccc(CNC(=O)c2ccc(N3Cc4ccccc4Oc4ncccc43)s2)c1`, which Potency is on record?
The Potency was inconclusive: 10 µM [inhibitor, partial curve, poor fit].

For `O=C(OC1CNC(C#Cc2cc3ncnc(Nc4ccc5c(cnn5Cc5ccccc5)c4)c3s2)C1)N1CCOCC1` (stereo not given), which Potency is on record?
Its Potency is active: 1.25 µM.

For `CCC(C(=O)NCc1cc(OC)ccc1OC)n1nc(C)c2sc3ccccc3c2c1=O` (stereo not given), which Potency is on record?
The Potency was “inactive”.

For `CS(=O)(=O)N1CCc2cc(C(=O)N3CCCCC3)ccc21`, which Potency is on record?
The Potency was “inactive”.

With `O=C(COc1ccccc1Cl)Nc1nc(-c2cccs2)cs1` as the molecule, how does the Potency read?
The Potency was “inactive”.

With `COc1ccc2c(c1)CCc1sc(NC(=O)c3cccc(Br)c3)nc1-2` as the molecule, how does the Potency read?
The Potency was “inactive”.

Which Potency does the source give for `O=C(Nc1cccc(S(=O)(=O)Nc2ccc(Cl)cc2)c1)c1ccc2c(c1)OCCO2` here?
The Potency was inconclusive: 28.2 µM [inhibitor, partial curve, poor fit].

With `COc1ccccc1NC(=O)CSC1=Nc2ccccc2C2=NC(Cc3ccccc3)C(=O)N12` (stereo not given) as the molecule, how does the Potency read?
Its Potency is inconclusive: 35.5 µM [inhibitor, single point].

With `Oc1ccc(/C=N/Nc2ncc(Br)cn2)c(O)c1` as the molecule, how does the Potency read?
Its Potency is inconclusive: 10 µM [inhibitor, partial curve, poor fit].

For `Fc1ccccc1N1CC(c2ccccc2)C(c2cccs2)=N1` (stereo not given), which Potency is on record?
The Potency was “inactive”.

Which Potency does the source give for `COc1cc2c(cc1NC(=O)COC(=O)C(CCSC)NC(=O)c1ccccc1Cl)oc1ccccc12` (stereo not given) here?
The Potency was “inactive”.

Which Potency does the source give for `Cc1ccc(S(=O)(=O)N2CCN(C(=O)N(c3ccccc3)c3ccccc3)CC2)cc1` here?
Its Potency is inconclusive: 23.1 µM [inhibitor, single point].

With `CCOc1ccc(CNC(=O)C2CCN(c3nnc(-n4c(C)ccc4C)s3)CC2)cc1` as the molecule, how does the Potency read?
Its Potency is “inactive”.

With `Cc1ccccc1NS(=O)(=O)c1ccc(OCCNS(C)(=O)=O)cc1` as the molecule, how does the Potency read?
Its Potency is “inactive”.

For `CCCN1C(=O)c2[nH]nc(-c3ccccc3)c2C1c1cccc(O)c1` (stereo not given), which Potency is on record?
Its Potency is “inactive”.

Which Potency does the source give for `CCOC(=O)c1ccc(NC(=O)c2ccc(CN3CCOCC3)cc2)cc1` here?
The Potency was inconclusive: 20.6 µM [inhibitor, single point].

Which Potency does the source give for `CCOc1ccc(-c2nnc(SCC(=O)NCc3ccccc3Cl)o2)cc1` here?
Its Potency is inconclusive: 12.6 µM [activator, single point].

Which Potency does the source give for `COc1ccc(-n2c(=S)[nH]c3c(sc(=S)n3-c3ccccc3)c2=O)c(OC)c1` here?
Its Potency is “inactive”.

For `COCc1cc(C)nc2c1C(=O)NC(c1ccc(C)cc1)N2Cc1ccccc1` (stereo not given), which Potency is on record?
The Potency was “inactive”.

For `Cc1sc(NC(=O)CCS(=O)(=O)c2ccccc2)c(C#N)c1C`, which Potency is on record?
Its Potency is inconclusive: 0.251 µM [inhibitor, full curve].

With `CCN(CC)CCNC(=O)C(=O)NCC(c1ccc2c(c1)OCO2)N1CCOCC1` (stereo not given) as the molecule, how does the Potency read?
Its Potency is “inactive”.

For `Fc1ccc(Nc2nc(Oc3ccccc3F)nc(N3CCCC3)n2)cc1`, which Potency is on record?
Its Potency is inconclusive: 6.51 µM [activator, single point].

For `CC(=Nc1ccccc1)C1=C(O)CSC1=O`, which Potency is on record?
The Potency was “inactive”.

With `Cc1ccc(NC(=O)c2cc(N3CCOCC3)nc3ccccc23)cc1` as the molecule, how does the Potency read?
Its Potency is inconclusive: 29.1 µM [inhibitor, single point].

With `Cc1ccccc1Nc1nn2c(=O)c3ccc(C(=O)NCc4ccccc4)cc3nc2s1` as the molecule, how does the Potency read?
Its Potency is “inactive”.

With `Cc1cc(OCc2cc(C(=O)NCCN3CCCCC3CO)no2)cc(C)c1Cl` (stereo not given) as the molecule, how does the Potency read?
The Potency was inconclusive: 11.2 µM [inhibitor, partial curve, poor fit].

With `N/C(=N\OC(=O)CC1CCCCC1)c1ccncc1` as the molecule, how does the Potency read?
The Potency was “inactive”.

Which Potency does the source give for `CCOc1cc(OCC)cc(C(=O)Nc2cccc(-c3nc4ccccc4[nH]3)c2)c1` here?
The Potency was inconclusive: 12.6 µM [inhibitor, partial curve, poor fit].

Which Potency does the source give for `C=CCC(CC=C)(CNC(=O)C(=O)Nc1ccc(C)cc1)c1ccccc1` here?
The Potency was inconclusive: 3.98 µM [activator, full curve].

For `CN1CCN(c2ccc([N+](=O)[O-])c(N/N=C3\CN4CCC3CC4)c2)CC1`, which Potency is on record?
The Potency was inconclusive: 8.2 µM [inhibitor, partial curve].

Which Potency does the source give for `COCCN1C=C(C(=O)OC)C(c2ccc(OC)c(OC)c2)C(C(=O)OC)=C1` here?
Its Potency is “inactive”.

For `COc1ccccc1-c1nnc(C2CCN(C(=O)c3cccc(C)c3)CC2)o1`, which Potency is on record?
The Potency was “inactive”.

For `O=C(NCc1ccccc1)C(=O)NCC(c1ccco1)S(=O)(=O)c1ccc(Cl)cc1` (stereo not given), which Potency is on record?
The Potency was inconclusive: 7.08 µM [inhibitor, partial curve, poor fit].

For `O=C(Cc1noc2ccccc12)Nc1ccccn1`, which Potency is on record?
The Potency was inconclusive: 4.47 µM [activator, full curve, poor fit].

For `COC(=O)C(Cc1ccccc1)NC(=O)COc1ccc(C(C)(C)C)cc1` (stereo not given), which Potency is on record?
Its Potency is inconclusive: 11.2 µM [inhibitor, single point].

For `CSC1=NC(C)(C)C=C(/C=C/c2ccc(Cl)cc2)N1`, which Potency is on record?
Its Potency is inconclusive: 14.1 µM [inhibitor, single point].

For `CCc1ccc(NC(=O)Cn2c(=O)n(CCCCC(=O)NCc3ccccc3Cl)c(=O)c3ccccc32)cc1`, which Potency is on record?
Its Potency is inconclusive: 4.47 µM [activator, partial curve, poor fit].

Which Potency does the source give for `COC(=O)c1cccc2c1NC(=O)C2=O` here?
Its Potency is inconclusive: 15.8 µM [inhibitor, single point].

With `Cc1cccc(OCC(=O)NNC(=O)CCc2ccccc2)c1` as the molecule, how does the Potency read?
Its Potency is “inactive”.

For `CCOc1ccc(NS(=O)(=O)c2cc(C(=O)N3CC(C)OC(C)C3)ccc2C)cc1` (stereo not given), which Potency is on record?
Its Potency is inconclusive: 2.51 µM [inhibitor, partial curve, poor fit].

With `O=C(Nc1ccc(N2CCCCC2)cc1)C(Cl)c1ccccc1` (stereo not given) as the molecule, how does the Potency read?
Its Potency is inconclusive: 15.8 µM [inhibitor, single point].

With `Cc1ccccc1CN(C)C(=O)COC(=O)c1ccc2[nH]c(C)c(C)c2c1` as the molecule, how does the Potency read?
Its Potency is inconclusive: 1.12 µM [inhibitor, full curve, poor fit].

For `Cn1cc(CN(CCCN2CCOCC2)C(=S)Nc2cccc(Cl)c2)c2ccccc21`, which Potency is on record?
Its Potency is inconclusive: 35.5 µM [inhibitor, single point].

With `COc1ccc(CCNC(=O)c2cc3n(n2)CCCN(Cc2ccc(C)cc2)C3=O)cc1OC` as the molecule, how does the Potency read?
The Potency was “inactive”.

With `Cc1ccc(N=Nc2c(O)[nH]c3ccc(F)cc23)cc1` as the molecule, how does the Potency read?
The Potency was “inactive”.

For `O=C(NC1CCN(C(=O)NC2CCCCC2)CC1)c1ccco1`, which Potency is on record?
The Potency was “inactive”.

With `O=C(NCCOc1ccccc1)c1ccc2c(c1)OCO2` as the molecule, how does the Potency read?
The Potency was inconclusive: 4.61 µM [inhibitor, partial curve, poor fit].

For `CCC(C(=O)Nc1cccc(S(=O)(=O)N(C)c2ccccc2)c1)c1ccccc1` (stereo not given), which Potency is on record?
The Potency was active: 11.2 µM.

For `Cc1ccc(NC(=O)Cc2ccccc2)cc1S(=O)(=O)N1CCOCC1`, which Potency is on record?
The Potency was inconclusive: 14.1 µM [inhibitor, partial curve, poor fit].

With `CCOc1ccc(CCNC(=O)CSCC(=O)Nc2cccc(C)c2)cc1OCC` as the molecule, how does the Potency read?
The Potency was “inactive”.

With `Cc1ccc(CCNC(=O)c2ccc3[nH]c(C)c(C)c3c2)cc1` as the molecule, how does the Potency read?
The Potency was “inactive”.

For `CCC(C)(C)NC(=O)C(c1ccc(OC)cc1)N(Cc1cccs1)C(=O)CCC(=O)Nc1cc(C)on1` (stereo not given), which Potency is on record?
The Potency was inconclusive: 16.4 µM [inhibitor, single point].

For `CCCCn1c(N)c(N(CCC(C)C)C(=O)CN2C(=O)C3CCCCC3C2=O)c(=O)[nH]c1=O` (stereo not given), which Potency is on record?
The Potency was inconclusive: 1.26 µM [inhibitor, partial curve, poor fit].

For `Cc1cc(OCC(=O)NC2CCN(Cc3ccccc3)CC2)c2c(C)cc(=O)oc2c1`, which Potency is on record?
The Potency was inconclusive: 20 µM [inhibitor, single point].

For `CN(C)S(=O)(=O)c1ccc(NC(=O)c2ccc(Br)o2)cc1`, which Potency is on record?
Its Potency is inconclusive: 3.26 µM [inhibitor, partial curve, poor fit].

For `COc1ccccc1CNC(=S)Nc1ccc(F)cc1`, which Potency is on record?
Its Potency is “inactive”.

Which Potency does the source give for `Cc1csc(NC(=O)c2c(O)c3c(n(CC(C)C)c2=O)CCCC3)n1` here?
Its Potency is inconclusive: 35.5 µM [inhibitor, single point].

With `COc1ccc(C)cc1S(=O)(=O)N1CCN(C(=O)c2ncoc2-c2cccc(F)c2)CC1` as the molecule, how does the Potency read?
The Potency was inconclusive: 35.5 µM [inhibitor, single point].

With `COc1c(Cl)cnn(-c2ccc(Cl)c(Cl)c2)c1=O` as the molecule, how does the Potency read?
The Potency was “inactive”.

For `CC(=O)C1=C(c2ccccc2)N(C(C)=O)n2c(nnc2C2CCCCC2)S1`, which Potency is on record?
The Potency was inconclusive: 10 µM [inhibitor, single point].

For `Fc1cc(F)cc(NC(=S)N2CCN(c3ncccn3)CC2)c1`, which Potency is on record?
The Potency was inconclusive: 7.08 µM [inhibitor, partial curve, poor fit].

With `CCCC1=Nc2cc(C(=O)NCc3ccco3)ccc2Sc2ccccc21` as the molecule, how does the Potency read?
Its Potency is inconclusive: 8.2 µM [inhibitor, partial curve].

For `CSc1ncc(Cl)c(C(=O)Nc2ccc(S(=O)(=O)Nc3nccc(C)n3)cc2)n1`, which Potency is on record?
The Potency was “inactive and inconclusive: 1.26 µM [inhibitor, single point]”.

For `CC1CCc2cc(F)ccc2N1C(=O)c1cc2nc(-c3ccco3)cc(C(F)(F)F)n2n1` (stereo not given), which Potency is on record?
Its Potency is “inactive”.

For `Cc1ccc(C)c(-n2cc(CNCCCn3cccn3)c(-c3ccccc3)n2)c1`, which Potency is on record?
Its Potency is inconclusive: 8.91 µM [inhibitor, partial curve, poor fit].

For `O=C(CCCN1C(=O)/C(=C\c2ccccc2)SC1=S)N1CCOCC1`, which Potency is on record?
Its Potency is “inactive”.

With `N#Cc1nc(Cc2ccccc2)oc1N1CCN(c2cccc(Cl)c2)CC1` as the molecule, how does the Potency read?
The Potency was “inactive”.
